# Counter-ions that a name gives are not always drawn. ± gives the standard deviation of the averaged measurements. The list shows a part of the results.
# Test system: APPdp1-6 iPSC-derived neurons
# Assay: pThr231Tau/total Tau ratio Z-score vs DMSO vehicle wells; higher = more pThr231Tau relative to total Tau
# Conditions: 5 µM; treatment time 5 days
row,SMILES,pThr231Tau/total Tau ratio Z-score
1,CC(C[N+](C)(C)C)OC(N)=O (stereo unspecified) [Prestw-1073],0.628 ± 0.36
2,COc1cccc(N(C)C(=S)Oc2ccc3c(c2)CCCC3)n1 [Prestw-1140],0.468 ± 0.053
3,NCCc1cc[nH]n1 [Prestw-43],0.981 ± 0.4
4,CCCNC(C)C(=O)Nc1c(C)csc1C(=O)OC (stereo unspecified) [Prestw-1032],0.569 ± 1.4
5,Cc1c(NC(C)C)c(=O)n(-c2ccccc2)n1C [Prestw-722],0.356 ± 1
6,CC(C=CC=C(C)C=CC1=C(C)CCCC1(C)C)=CC=CC=C(C)C=CC=C(C)C=CC1=C(C)CCCC1(C)C [B-Carotene],0.0884 ± 0.85
7,CC1(C)[C@@H](O)CC[C@]2(C)[C@H]3C(=O)C=C4[C@@H]5C[C@@](C)(C(=O)O)CC[C@]5(C)CC[C@@]4(C)[C@]3(C)CC[C@@H]12,0.329 ± 1.6
8,C[C@]12CCC(=O)C=C1C=C[C@@H]1[C@@H]2CC[C@@]2(C)[C@H]1CC[C@@]21CCC(=O)O1 [Prestw-1259],0.9 ± 0.53
9,NC(=O)OCC(O)COc1ccc(Cl)cc1 (stereo unspecified) [Prestw-234],-0.109 ± 1
10,CC1(C)S[C@@H]2[C@H](NC(=O)[C@H](N)c3ccccc3)C(=O)N2[C@H]1C(=O)OC1OC(=O)c2ccccc21 (stereo partly specified) [Prestw-1010],0.364 ± 0.016
11,O=C(O)C(O)C(O)C(=O)O (stereo unspecified) [Tartaric acid],0.784 ± 0.8
12,CN1C(C(=O)Nc2ccccn2)=C(O)c2ccccc2S1(=O)=O [Prestw-211],-0.355 ± 1.8
13,COCCOC(=O)C1=C(C)NC(C)=C(C(=O)OC(C)C)C1c1cccc([N+](=O)[O-])c1 (stereo unspecified) [Prestw-918],0.0642 ± 0.27
14,NCCS,0.879 ± 1.2
15,COC(=O)CCc1ccc(OCC(O)CNC(C)C)cc1 (stereo unspecified) [Prestw-1137],1.19 ± 0.46
16,NCC(=O)CCC(=O)O [5-Aminolevulinic acid],0.678 ± 2
17,NC(=O)c1ccc[n+]([C@@H]2O[C@H](COP(=O)([O-])OP(=O)(O)OC[C@H]3O[C@@H](n4cnc5c(N)ncnc54)[C@H](O)[C@@H]3O)[C@@H](O)[C@H]2O)c1 [Prestw-741],-0.0357 ± 0.091
18,CNCCC=C1c2ccccc2C=Cc2ccccc21 [Prestw-513],-1.26 ± 0.31
19,COc1ccc(CN(CCN(C)C)c2ncccn2)cc1 [THONZYLAMINE HYDROCHLORIDE    Therap cat: antihistamine],0.693 ± 1.6
20,Cc1ccc(C)c(OCCCC(C)(C)C(=O)O)c1 [Prestw-214],-1.06 ± 0.91
21,O=C(CCCN1CCC(O)(c2ccc(Cl)cc2)CC1)c1ccc(F)cc1 [Prestw-115],-0.281 ± 0.33
22,CN(Cc1ccc(C(C)(C)C)cc1)Cc1cccc2ccccc12 [Prestw-1252],0.744 ± 0.4
23,CCCCCCCCNC(C)C(O)c1ccc(SC(C)C)cc1 (stereo unspecified) [Prestw-421],-2.94 ± 0.1
24,C[C@H]1O[C@@H](O[C@H]2[C@@H](O)C[C@H](O[C@H]3[C@@H](O)C[C@H](O[C@H]4CC[C@@]5(C)[C@H](CC[C@@H]6[C@@H]5CC[C@]5(C)[C@@H](C7=CC(=O)OC7)CC[C@]65O)C4)O[C@@H]3C)O[C@@H]2C)C[C@H](O)[C@@H]1O,-4.21 ± 0.55
25,CC(=O)CC(c1ccc([N+](=O)[O-])cc1)c1c(O)c2ccccc2oc1=O (stereo unspecified) [Prestw-110],1.12 ± 0.74
26,CC1(C)S[C@@H]2[C@H](NC(=O)COc3ccccc3)C(=O)N2[C@H]1C(=O)O [PENICILLIN V POTASSIUM    Therap cat: antibacterial],-1.1276 ± 0.0011

row,SMILES,pThr231Tau/total Tau ratio Z-score
1,CCCC(=O)O[C@]1(C(=O)CO)CC[C@H]2[C@@H]3CCC4=CC(=O)CC[C@]4(C)[C@H]3[C@@H](O)C[C@@]21C,0.485 ± 0.96
2,COc1ccc2c3c1O[C@H]1C[C@@H](O)C=C[C@@]31CCN(C)C2 [Prestw-588],0.107 ± 0.57
3,O=c1[nH]c(=O)n([C@H]2C[C@H](O)[C@@H](CO)O2)cc1C(F)(F)F [Prestw-1056],0.775 ± 0.27
4,Cc1nnc(SCC2=C(C(=O)O)N3C(=O)[C@@H](NC(=O)Cn4cnnn4)[C@H]3SC2)s1 [Prestw-736],0.108 ± 0.009
5,CC(C)Cn1cnc2c(N)nc3ccccc3c21 [Prestw-1291],-0.259 ± 0.79
6,CC(=O)OCC(=O)[C@@]1(O)[C@H](OC(C)=O)C[C@H]2[C@@H]3CCC4=CC(=O)C=C[C@]4(C)[C@@]3(F)[C@@H](O)C[C@@]21C [TRIAMCINOLONE DIACETATE    Therap cat: antiinflammation],2.97 ± 2.8
7,NC(=O)N1c2ccccc2CC(=O)c2ccccc21 [Prestw-1156],1.75 ± 2.8
8,Cc1cccc(Nc2ccncc2S(=O)(=O)NC(=O)NC(C)C)c1 [Prestw-1030],-0.641 ± 0.56
9,C[C@]12CC[C@H]3[C@@H](CCC4=CC(=O)CC[C@@]43C)[C@@H]1CC[C@@H]2C(=O)CO [Prestw-957],-0.764 ± 0.5
10,C=N[C@@H](C(=O)N[C@@H]1C(=O)N2[C@@H]1SC(C)(C)[C@@H]2C(=O)O)c1ccccc1 [METAMPICILLIN SODIUM    Therap cat: antimicrobial],0.98 ± 0.14
11,CC[N+](CC)(CC(=O)Nc1c(C)cccc1C)Cc1ccccc1 [Prestw-961],-0.173 ± 1.2
12,COc1cc(NS(=O)(=O)c2ccc(N)cc2)nc(OC)n1 [Prestw-728],-0.3 ± 0.91
13,CC1(C)O[C@@H]2[C@@H](CO[C@@]3(COS(N)(=O)=O)OC(C)(C)O[C@@H]23)O1 [Prestw-1493],1.09 ± 0.24
14,CC(CN1c2ccccc2Sc2ccccc21)N(C)C (stereo unspecified) [Prestw-888],0.37 ± 0.14
15,NS(=O)(=O)c1cc2c(cc1C(F)(F)F)NC(Cc1ccccc1)NS2(=O)=O (stereo unspecified) [Prestw-784],-0.7 ± 0.16
16,O[C@@H](c1cc(C(F)(F)F)nc2c(C(F)(F)F)cccc12)[C@H]1CCCCN1 [Prestw-126],-1.1 ± 0.7
17,O=C(CCCCCCCCCCCCC1CCCC1)Nc1ccc(S(=O)(=O)c2ccc(NC(=O)CCCCCCCCCCCCC3CCCC3)cc2)cc1,-0.113 ± 0.2
18,O=C(c1ccc(OCCN2CCCCC2)cc1)c1c(-c2ccc(O)cc2)sc2cc(O)ccc12 [Prestw-862],-1.65 ± 0.86
19,CCn1cc(C(=O)O)c(=O)c2cc(F)c(N3CCNCC3)cc21 [Prestw-221],1.41 ± 0.67
20,CC1(C)S[C@@H]2[C@H](N3C(=O)[C@@H](c4ccccc4)NC3(C)C)C(=O)N2[C@H]1C(=O)O [HETACILLIN POTASSIUM    Therap cat: antibacterial],0.547 ± 0.57
21,CCOC(=O)C1=C(C)NC(C)=C(C(=O)OC)C1c1cccc([N+](=O)[O-])c1 (stereo unspecified) [Prestw-916],-0.3 ± 0.8
22,CC1CCc2cc(F)cc3c(=O)c(C(=O)O)cn1c23 (stereo unspecified) [Prestw-204],-0.584 ± 0.73
23,O=C(NCC1CCCCN1)c1cc(OCC(F)(F)F)ccc1OCC(F)(F)F (stereo unspecified) [Prestw-735],-0.156 ± 0.71
24,CCCCOc1ccc(OCCCN2CCOCC2)cc1 [Prestw-716],-0.656 ± 1.7
25,CCCOc1ccc2nc(NC(=O)OC)[nH]c2c1 [Prestw-1460],-3.65 ± 0.82
26,COc1c(O)cc2c(c1O)[C@@H]1O[C@H](CO)[C@@H](O)[C@H](O)[C@H]1OC2=O [BERGENIN    ex Bergenia spp.    J Chem Soc 1958: 2231],0.819 ± 0.25

# Ordered by formula weight (falling): three of the compounds above
row,SMILES,pThr231Tau/total Tau ratio Z-score
25,CC(=O)CC(c1ccc([N+](=O)[O-])cc1)c1c(O)c2ccccc2oc1=O (stereo unspecified) [Prestw-110],1.12 ± 0.74
12,CN1C(C(=O)Nc2ccccn2)=C(O)c2ccccc2S1(=O)=O [Prestw-211],-0.355 ± 1.8
15,COC(=O)CCc1ccc(OCC(O)CNC(C)C)cc1 (stereo unspecified) [Prestw-1137],1.19 ± 0.46

# Continuation:

row,SMILES,pThr231Tau/total Tau ratio Z-score
1,COc1ccccc1OCCNCC(O)COc1cccc2[nH]c3ccccc3c12 (stereo unspecified) [Prestw-1262],0.102 ± 0.98
2,"S=P(N1CC1)(N1CC1)N1CC1 [THIOTEPA    Therap cat: antineoplastic, alkylating agent]",2.16 ± 2.4
3,COc1cc(N)c(Cl)cc1C(=O)NC1CCN(Cc2ccccc2)CC1 [Prestw-380],-0.0531 ± 0.91
4,CCN1CCCC1CNC(=O)c1cc(S(=O)(=O)CC)c(N)cc1OC (stereo unspecified) [Prestw-1217],0.426 ± 0.31
5,NC(N)=NCCN1CCCCCCC1 [Prestw-317],1.52 ± 0.73
6,Cc1c(OCC(F)(F)F)ccnc1C[S+]([O-])c1nc2ccccc2[nH]1 (stereo unspecified) [Prestw-1072],0.119 ± 0.83
7,Cn1c(=O)c2c(ncn2C)n(C)c1=O [Prestw-1256],0.703 ± 0.048
8,CC(C)(C)NCC(O)c1ccc(O)c(CO)c1 (stereo unspecified) [Prestw-198],-1.01 ± 0.69
9,COc1ccc2cc1Oc1ccc(cc1)C[C@H]1c3c(cc4c(c3Oc3cc5c(cc3OC)CCN(C)[C@@H]5C2)OCO4)CCN1C,-0.433 ± 1.2
10,"CCOC(=O)c1ccc(O)cc1 [ETHYL PARABEN, antifungal]",0.955 ± 1.2
11,"CCC(=O)NCC[C@@H]1CCc2ccc3c(c21)CCO3 [RAMELTEON, melatonin receptor agonist]",1.5 ± 0.36
12,COC1=CC(=O)C[C@@H](C)[C@]12Oc1c(Cl)c(OC)cc(OC)c1C2=O [Prestw-226],-1.72 ± 0.52
13,"CCCCC1=NC2(CCCC2)C(=O)N1Cc1ccc(-c2ccccc2-c2nn[nH]n2)cc1 [IRBESARTAN, angiotensin 2 receptor antagonist]",-0.835 ± 0.67
14,OCC(O)CN1CCN(c2ccccc2)CC1 (stereo unspecified) [Prestw-245],0.615 ± 0.73
15,CN(C)CCC(c1ccc(Cl)cc1)c1ccccn1 (stereo unspecified) [Prestw-117],-0.639 ± 0.45
16,COc1cc(N)c(Cl)cc1C(=O)NC1CCN(CCCOc2ccc(F)cc2)CC1OC (stereo unspecified) [Prestw-430],1.37 ± 0.48
17,CCCC(CCC)C(=O)O [Prestw-1482],-0.109 ± 1.2
18,O=C(O)CNC(=O)C(CS)Cc1ccccc1 (stereo unspecified) [Prestw-633],0.164 ± 0.47
19,Cc1onc(-c2ccccc2)c1C(=O)N[C@@H]1C(=O)N2[C@@H]1SC(C)(C)[C@@H]2C(=O)O [Prestw-1475],-1.18 ± 0.2
20,"CO/N=C1\CN(c2nc3c(cc2F)c(=O)c(C(=O)O)cn3C2CC2)CC1CN (stereo unspecified) [GEMIFLOXACIN MESYLATE, antibacterial]",-0.0854 ± 0.055
21,Clc1ccccc1C(c1ccccc1)(c1ccccc1)n1ccnc1 [Prestw-267],-0.874 ± 0.34
22,NC(=O)NO,0.29 ± 0.83
23,Clc1ccc(COC(Cn2ccnc2)c2ccc(Cl)cc2Cl)cc1 (stereo unspecified) [Prestw-304],-0.894 ± 0.33
24,C=CC[N@@+]12CC[C@@]34c5ccccc5N5/C=C6/[C@H]7C[C@H]8[C@@]9(CC[N@@+]8(CC=C)C/C7=C/CO)c7ccccc7N(/C=C(/[C@@H](C[C@@H]31)/C(=C\CO)C2)[C@H]54)[C@@H]69 [Prestw-1036],-1.69 ± 0.56

# From the supplement of paper PMC6414424
